The record followed here is PubChem BioAssay AID1347423 (Functional Genomics Laboratory (NCATS/FGL), 2020).

About 210 (0.4%) of roughly 52,000 sequences were called active.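 Rule for the calls: active = gene whose silencing raises cell survival under the drug, median off-target-corrected z-score across its silencing RNAs 2 or more; inactive = the rest.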 The list shows a part of the results.

A short description of the assay: Resistance to Poly (ADP-Ribose) Polymerase inhibitor: Gene Identification via Genome-wide siRNA Screen. As to conditions: mouse BRCA2 R2336H ES cells, olaparib, CellTiter-Glo viability; hits give high values. The essentials:
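Genome-wide siRNA screen (3 siRNAs/gene, 20 nM) in mouse ES cells carrying hypomorphic BRCA2 R2336H; olaparib 500 nM added 48 h post-transfection, CellTiter-Glo viability 72 h later. Normalized to plate-median negative control; MAD z-scores, gene median, seed-adjusted.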
Regarding GGGAAGCAGAAAUGAGAAATT against Pdcd5, the z-score was inactive: -0.672.

CCUCAUGCAGCUCAAUCUATT against Prelp: the z-score was inactive: 0.988. Under CGUAUUCCAAAUACACUUGTT against Meox2 stands inactive: -0.234.

For GGGCAAGUUUGUGGAGCUUTT against Akr7a5, the z-score was inactive: 1.43. Under “GGUGAUUCCAGACUCGGAUTT against 2700099C19Rik” stands inactive: -1.04; under GUGGCACCUUUGGUGAAGCTT against Kiss1, inactive: -0.176. Under GGGUUAUGUCUGUGGAGCUTT against Bcl2l2 stands active: 1.54; under GGUCAAAGCAAGAAGAUGATT against 9-Sep, inactive: -1.92.

As for GCUCUACAUGUUUAUCACATT against Olfr311, the z-score was inactive: 1.02. As for GGUUUUGGACACACUAUUUTT against Tmem34, the z-score was inactive: -0.311. Under GGAUCAUCUCCUCUACUCUTT against Olfr394 stands inactive: 1.27.

Turning to “GCUUGUUCAGUUAACAAGATT against D19Ertd703e”, the z-score was inactive: 1.69. For GGAAGCUGUGCUGAAUGGUTT against Atp5l, the z-score is inactive: -0.307. Under “GGUUUGUGUGGUUUUUCCUTT against 2810441K11Rik” stands inactive: 0.829; under “GGAACACACAAUUUUAUCATT against 4933436I01Rik”, inactive: 1.18. Under “GCCGUAAGCUAGGAUCUGGTT against 1700065D16Rik” stands inactive: -0.682; under CCGUAAAAAAUUCUGUAAGTT against Ube2l3, inactive: 0.615; under GCCGCUGUCCAUCUUUAUGTT against Cecr6, inactive: 0.865. Under GCACUAAAACCCAAUCAGATT against Fmnl3 stands inactive: 0.207.

As for “GGCCAAAUACGUCAAGAGCTT against 1700012H17Rik”, the z-score is inactive: -0.203. Turning to GGGCACCUUAUACCAUAGATT against Bfar, the z-score is inactive: -1.04. As for GGAACUGGCCAAGUUUAAATT against Ing3, the z-score is inactive: -1.02.

With GGCUUGAUCCUUAGCUUAATT against Gpld1, the z-score is inactive: 0.261. Under GCGGAGAUGUACACAAAAGTT against Nqo2 stands inactive: -0.708; under GGCCAAAGCUGAUAUGACATT against Ankrd5, inactive: -0.152; under “GGAACACCUUGAAUGAUGUTT against 1700007I06Rik”, inactive: -0.248. CCACAGUAUCAUGUAACUATT against Il1a: the z-score was inactive: 1.39. Under CCUGUGAGAUAAGCGAAGCTT against Edil3 stands inactive: 0.417.

Turning to GGAUUGGAUUUCUUAGUUCTT against Myo1c, the z-score is inactive: 0.131. Under GGUAUUUCUACUGUGACAGTT against Olfr1055 stands inactive: -0.708; under GGAGACCUUACCACUUGAATT against Ephx1, inactive: 0.474; under GCCUCUUCAAUCACAUUUATT against Atp6v0a4, inactive: -0.588.

Take CGACAUUGAUAUCGUGCGCTT against Gadd45g: the z-score is inactive: -0.138. Under GGCAAUUUGGAUACCAGGATT against Zfp191 stands inactive: 2.09; under GUAGACCGAAACCACUUCCTT against Refbp2, inactive: -2.01; under GGCCAUUGGCUGGACAAAUTT against Mppe1, inactive: 0.756.

With “GGAAGUUUUGGCUUAGGCATT against 4930563P21Rik”, the z-score was inactive: -1.25. Under GGUUAACCCAAUGCCAGUGTT against Cyba stands inactive: -1.74. “GGUUCAGUCCUUCUUAACATT against 9130005N14Rik”: the z-score was inactive: -0.706. Under “GGAGAACAAGGCAAAAGAATT against C330043M08” stands inactive: -1.89. Under CCAACACAACUGGUAAAAUTT against Plcb4 stands inactive: 1.27; under GGGUUCUGUCACUAUAAUATT against Defb10, inactive: -0.183; under GACGACUUGAUUGUAAGCATT against Amt, inactive: -0.918. Under GGAGAAUAUUGAGUCCUUCTT against Slc2a5 stands inactive: 0.782; under GGAUGACGACUGCACUUACTT against Itgb4, inactive: 1.87.

Regarding “GCAACAAGCUGGUUGGCUUTT against 4933417A14Rik”, the z-score is inactive: 0.455. Under “GCCAGACAAGCCUCAUUGATT against 2810406C15Rik” stands inactive: -2.26; under CCUACUAUAGUACCAACCATT against Rnf111, inactive: -1.36. Under GGCACCCUCAAGAAAGCGUTT against Nol6 stands inactive: -0.473; under GGUCCAAUCGACAACACUATT against Usp33, inactive: 2.9. Under GGAGGUCCAGAAGAAUUAUTT against Magmas stands inactive: 0.877; under “CCUGCGUACGAAUUAAAGGTT against 2700059L22Rik”, inactive: 0.748.

As to “GUCCCACUGUCCAGUUACATT against C630010N09”, the z-score was inactive: -1.62. Under GCAGACCAUGGCCUCAGAUTT against Sh3bp1 stands inactive: -0.95. Under “GCCAUGAGGUCUGUUCUUATT against A130030D10Rik” stands inactive: 0.817; under GCUGCGCAGUUUAGAAGAGTT against Rab24, inactive: 0.0743. Under “GGUUGUGAUCUUGAAACUUTT against 4930451A13Rik” stands inactive: -1.44; under GGAGAAGUACAACGCAGCGTT against Wnt7b, inactive: 0.625. With GGCCUCCAGAAACAACUCGTT against Ndst2, the z-score is inactive: 1.44. Under CCAGCUACCAGCUGUUUAATT against Txn1 stands inactive: -1.41; under GGACGACUACAACUACUACTT against Slc18a3, inactive: 0.184. Under GGAGACUAUGAAAAAAUCCTT against Anxa1 stands inactive: 0.643. Under CCGUUAUAUCUGCCAGUUUTT against Mrcl stands inactive: -1.05; under GGAUGCUGAAGUAAUAGUGTT against Tbc1d15, inactive: 0.187. Regarding GCUUCUCAAAUCUAGGAUCTT against Kcnj2, the z-score was inactive: 1.72. Under GGACAAUUGUCGACUGUUCTT against Thbs3 stands inactive: 1.22.
